These results are taken from patent EP4793288A1.

In the assay the target is Recombinant HLA-G antigen (human) (UniProt P17693). The experiment in a line: ELISA, recombinant HLA-G coated, antibody from 20 nM, anti-human IgG HRP.

Where a chain is given by its changes, count along the chain named. Results are given in words; binding and its absence hold for the method and conditions named. Some entries that bind do so weakly or less than the wild type.

B1: 2F1_LS#17 (antibody, human IgG1, kappa, V domains shown)
VH: EVQLVESGGGLVQPGGSLRLSCAASGFTFSSYAMSWVRQAPGKGLEWVSRISGSGGYIYYADSVKGRFTISRDNSKNTLYLQMNSLRAEDTAVYYCAKEGTSSYRGWMDVWGQGTLVTVSS
VL: DIQMTQSPSSLSASVGDRVTITCRASQSISNYLNWYQQKPGKAPKLLIYAASRLQSDVPSRFSGSGSGTDFTLTISSLQPEDFATYYCQQSYSTPWTFGQGTKVEIKR
For the molecule B1, the binding result is reported as “binds”.

B2: 2F1_LS#26 (antibody, human IgG1, kappa, V domains shown)
VH: B1 VH
VL: B1 VL with A51T, D57G, T94F
Turning to B2, the binding result is reported as “binds”.

B3: 2F1CDRH3#26 (antibody, human IgG1, kappa, V domains shown)
VH: B1 VH with G56S, I58T, T101A
VL: B1 VL with A51T, D57G, Y92H
As for B3, the binding entry is “binds”.

B4: 2F1CDRH3#10 (antibody, human IgG1, kappa, V domains shown)
VH: B1 VH with I58K
VL: IQMTQSPSSLSASVGDRVTITCRASQSISNYLNWYQQKPGKAPKLLIYATSTLQSGVPSRFSGSGSGTDFTLTISSLQPEDFATYYCQQSYTTPWTFGQGTKVEIKR
For the molecule B4, the binding result is given as “binds”.

B5: 2F1_LS#24 (antibody, human IgG1, kappa, V domains shown)
VH: B1 VH
VL: B1 VL with Y32W, D57G, S93T, T94S
Regarding B5, the binding result is “binds”.

B6: 2F1_LS#39 (antibody, human IgG1, kappa, V domains shown)
VH: B1 VH
VL: B1 VL with N31R, A51T, R53N, Q55H, D57G, S93T, T94S
As to B6, the binding result was “binds”.

B7: 2F1HS6LS#46 (antibody, human IgG1, kappa, V domains shown)
VH: B1 VH with S31D, G53Q, G56S, I58T
VL: B1 VL with Y32W, A51T, D57G
Consider B7, for which the binding result was “binds”.

B8: 2F1CDRH3#17 (antibody, human IgG1, kappa, V domains shown)
VH: B1 VH with S31D, S54T, G56S, I58K, S103T
VL: B1 VL with A51T, D57G, S93T
Regarding B8, the binding result was “binds”.

B9: Positive control antibody (antibody, human IgG1, kappa, V domains shown)
VH: QLQLQESGPGLVKPSETLSLTCTVSGGSISSSSTYWSWIRQPPGKGLEWIGGIAYSGSTYYNPSLKSRVTISVDTSKNQFSLKLSSVTAADTAVYYCARGVRRAVPEDYWGQGTLVTVSS
VL: EIVLTQSPGTLSLSPGERATLSCQASQAVSSNYLAWYQQKPGQAPRLLIYGASSRATGIPDRFSGSGSGTDFTLTISRLEPEDFAVYYCQQVVHSPYTFGGGTKVEIKR
Consider B9, for which the binding entry is “binds”.

B10: T22A4 (antibody, human IgG1, kappa, V domains shown)
VH: EVQLVESGGNWVQPGGSLRLSCAASGFSFRSYAMSWVRQAPGKGLEWVSSISGSGNSELYAGSVKGRFTISRDNSKNTLSLQLHSLRAEDTAMYYCAKFSAAVGFLPDYFDSWGQGTLVTVSS
VL: ELTLTQSPSSLSASVGDRVTITCQASHDISKYLNWYQQKSGKAPKLLIYDASNLETGVPSRFSGSGSGTDFTLTISSLQPEDFATYYCQQSYRTPLTFGGGTKLEIKR
Take B10: the binding entry is reported as “binds”.

B11: T23D5 (antibody, human IgG1, kappa, V domains shown)
VH: QVQLQESGPGLVKPSETLSLTCTVSGGSIDRSSHYWGWIRQPPGKGLEWLGSIYYSGITYYNPSLKSRVTISVDTSRNQFSLTLSSVTAADTAVYYCARHGSYDSWAGRYKWDRFDPWGQGTPVTVSS
VL: B10 VL with T3Q, L4M, R93S, L104V
For B11, the binding result was “binds”.
